Here are results for 20 targets from the supplement of paper PMC11732987, “Enantioselective OTUD7B fragment discovery through chemoproteomics screening and high-throughput optimisation” (Communications Chemistry, 2025).

By UniProt entry, the sequences of proteins in these tests, tags left out. Where a name states a change or a piece, a line headed by the entry shows the natural chain unless it says otherwise. Residues count along the entry.
UniProt P20226, whole entry, looked up: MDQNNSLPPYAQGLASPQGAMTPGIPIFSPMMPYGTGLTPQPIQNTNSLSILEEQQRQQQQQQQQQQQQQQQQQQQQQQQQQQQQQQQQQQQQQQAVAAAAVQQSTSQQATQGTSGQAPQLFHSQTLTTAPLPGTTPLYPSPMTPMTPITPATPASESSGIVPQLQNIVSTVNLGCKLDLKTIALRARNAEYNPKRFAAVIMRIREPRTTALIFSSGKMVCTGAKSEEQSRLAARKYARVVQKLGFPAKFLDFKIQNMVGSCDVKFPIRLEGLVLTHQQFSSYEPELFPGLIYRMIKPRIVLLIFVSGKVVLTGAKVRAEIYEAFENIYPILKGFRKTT
UniProt Q7Z2Z1: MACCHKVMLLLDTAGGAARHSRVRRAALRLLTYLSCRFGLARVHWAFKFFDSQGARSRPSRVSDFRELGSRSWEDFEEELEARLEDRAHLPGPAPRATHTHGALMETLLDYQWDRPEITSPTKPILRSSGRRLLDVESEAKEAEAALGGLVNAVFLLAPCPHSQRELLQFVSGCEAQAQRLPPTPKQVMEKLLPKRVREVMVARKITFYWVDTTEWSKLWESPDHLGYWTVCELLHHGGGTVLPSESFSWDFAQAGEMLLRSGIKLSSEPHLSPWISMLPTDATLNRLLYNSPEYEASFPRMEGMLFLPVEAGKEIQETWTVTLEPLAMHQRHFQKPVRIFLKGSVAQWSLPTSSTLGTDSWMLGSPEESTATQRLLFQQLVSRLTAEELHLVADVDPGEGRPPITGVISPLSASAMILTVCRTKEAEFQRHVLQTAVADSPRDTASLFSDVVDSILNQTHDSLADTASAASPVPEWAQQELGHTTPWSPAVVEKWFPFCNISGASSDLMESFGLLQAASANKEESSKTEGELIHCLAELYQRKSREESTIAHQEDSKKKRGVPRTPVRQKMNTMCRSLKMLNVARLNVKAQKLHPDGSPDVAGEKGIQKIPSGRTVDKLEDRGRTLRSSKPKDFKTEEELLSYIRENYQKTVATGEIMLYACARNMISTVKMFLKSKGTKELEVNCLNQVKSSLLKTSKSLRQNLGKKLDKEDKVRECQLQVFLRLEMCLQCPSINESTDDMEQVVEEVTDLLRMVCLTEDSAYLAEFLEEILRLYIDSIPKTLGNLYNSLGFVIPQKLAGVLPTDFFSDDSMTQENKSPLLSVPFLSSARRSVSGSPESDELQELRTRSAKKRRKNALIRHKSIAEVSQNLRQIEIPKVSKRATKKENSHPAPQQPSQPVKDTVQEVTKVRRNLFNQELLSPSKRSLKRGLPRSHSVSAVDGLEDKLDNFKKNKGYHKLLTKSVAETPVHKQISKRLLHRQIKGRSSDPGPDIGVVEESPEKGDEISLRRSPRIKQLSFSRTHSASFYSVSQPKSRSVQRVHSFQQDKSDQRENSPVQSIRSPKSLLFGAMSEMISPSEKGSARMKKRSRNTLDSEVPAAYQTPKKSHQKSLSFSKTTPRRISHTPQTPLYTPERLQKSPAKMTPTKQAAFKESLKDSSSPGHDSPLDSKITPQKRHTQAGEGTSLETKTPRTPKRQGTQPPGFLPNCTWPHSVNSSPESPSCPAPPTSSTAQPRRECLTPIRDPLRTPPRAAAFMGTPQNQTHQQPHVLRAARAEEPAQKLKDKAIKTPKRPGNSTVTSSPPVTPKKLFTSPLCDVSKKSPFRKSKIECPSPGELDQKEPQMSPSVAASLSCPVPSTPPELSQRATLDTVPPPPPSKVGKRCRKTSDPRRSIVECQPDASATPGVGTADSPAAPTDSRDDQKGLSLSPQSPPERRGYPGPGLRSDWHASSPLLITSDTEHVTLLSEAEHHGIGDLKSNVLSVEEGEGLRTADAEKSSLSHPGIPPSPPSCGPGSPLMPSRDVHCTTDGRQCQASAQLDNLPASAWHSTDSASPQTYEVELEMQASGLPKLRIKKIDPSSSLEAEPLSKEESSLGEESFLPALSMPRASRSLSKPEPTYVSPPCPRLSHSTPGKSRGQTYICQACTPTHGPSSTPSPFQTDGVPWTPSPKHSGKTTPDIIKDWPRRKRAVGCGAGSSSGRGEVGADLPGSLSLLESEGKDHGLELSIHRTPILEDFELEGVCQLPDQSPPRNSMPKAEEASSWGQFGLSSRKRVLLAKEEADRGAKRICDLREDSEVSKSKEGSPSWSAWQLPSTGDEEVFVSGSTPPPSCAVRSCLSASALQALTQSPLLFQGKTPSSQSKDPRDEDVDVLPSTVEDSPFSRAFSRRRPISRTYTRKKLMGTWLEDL
UniProt P08247: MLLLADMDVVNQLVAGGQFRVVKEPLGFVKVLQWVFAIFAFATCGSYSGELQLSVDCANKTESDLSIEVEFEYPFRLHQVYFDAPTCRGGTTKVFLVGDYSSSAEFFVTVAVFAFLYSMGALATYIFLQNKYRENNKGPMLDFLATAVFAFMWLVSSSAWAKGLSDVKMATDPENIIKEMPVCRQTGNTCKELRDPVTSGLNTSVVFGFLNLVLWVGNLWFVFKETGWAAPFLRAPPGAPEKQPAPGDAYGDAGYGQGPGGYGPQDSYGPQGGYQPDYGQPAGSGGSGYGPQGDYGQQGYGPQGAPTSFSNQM
UniProt Q5QJ74: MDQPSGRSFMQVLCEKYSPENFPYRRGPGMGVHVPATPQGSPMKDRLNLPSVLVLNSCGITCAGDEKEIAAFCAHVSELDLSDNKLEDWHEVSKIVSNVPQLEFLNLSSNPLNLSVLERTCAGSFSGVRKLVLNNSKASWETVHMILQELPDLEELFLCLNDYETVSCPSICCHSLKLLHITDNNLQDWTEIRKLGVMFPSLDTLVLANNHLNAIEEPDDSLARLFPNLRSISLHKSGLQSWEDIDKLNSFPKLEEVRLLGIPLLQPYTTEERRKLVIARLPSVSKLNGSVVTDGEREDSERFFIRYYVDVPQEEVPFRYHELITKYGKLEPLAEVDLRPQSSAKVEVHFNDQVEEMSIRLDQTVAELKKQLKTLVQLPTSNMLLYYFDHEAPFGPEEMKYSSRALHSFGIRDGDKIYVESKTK
UniProt Q8NFU7: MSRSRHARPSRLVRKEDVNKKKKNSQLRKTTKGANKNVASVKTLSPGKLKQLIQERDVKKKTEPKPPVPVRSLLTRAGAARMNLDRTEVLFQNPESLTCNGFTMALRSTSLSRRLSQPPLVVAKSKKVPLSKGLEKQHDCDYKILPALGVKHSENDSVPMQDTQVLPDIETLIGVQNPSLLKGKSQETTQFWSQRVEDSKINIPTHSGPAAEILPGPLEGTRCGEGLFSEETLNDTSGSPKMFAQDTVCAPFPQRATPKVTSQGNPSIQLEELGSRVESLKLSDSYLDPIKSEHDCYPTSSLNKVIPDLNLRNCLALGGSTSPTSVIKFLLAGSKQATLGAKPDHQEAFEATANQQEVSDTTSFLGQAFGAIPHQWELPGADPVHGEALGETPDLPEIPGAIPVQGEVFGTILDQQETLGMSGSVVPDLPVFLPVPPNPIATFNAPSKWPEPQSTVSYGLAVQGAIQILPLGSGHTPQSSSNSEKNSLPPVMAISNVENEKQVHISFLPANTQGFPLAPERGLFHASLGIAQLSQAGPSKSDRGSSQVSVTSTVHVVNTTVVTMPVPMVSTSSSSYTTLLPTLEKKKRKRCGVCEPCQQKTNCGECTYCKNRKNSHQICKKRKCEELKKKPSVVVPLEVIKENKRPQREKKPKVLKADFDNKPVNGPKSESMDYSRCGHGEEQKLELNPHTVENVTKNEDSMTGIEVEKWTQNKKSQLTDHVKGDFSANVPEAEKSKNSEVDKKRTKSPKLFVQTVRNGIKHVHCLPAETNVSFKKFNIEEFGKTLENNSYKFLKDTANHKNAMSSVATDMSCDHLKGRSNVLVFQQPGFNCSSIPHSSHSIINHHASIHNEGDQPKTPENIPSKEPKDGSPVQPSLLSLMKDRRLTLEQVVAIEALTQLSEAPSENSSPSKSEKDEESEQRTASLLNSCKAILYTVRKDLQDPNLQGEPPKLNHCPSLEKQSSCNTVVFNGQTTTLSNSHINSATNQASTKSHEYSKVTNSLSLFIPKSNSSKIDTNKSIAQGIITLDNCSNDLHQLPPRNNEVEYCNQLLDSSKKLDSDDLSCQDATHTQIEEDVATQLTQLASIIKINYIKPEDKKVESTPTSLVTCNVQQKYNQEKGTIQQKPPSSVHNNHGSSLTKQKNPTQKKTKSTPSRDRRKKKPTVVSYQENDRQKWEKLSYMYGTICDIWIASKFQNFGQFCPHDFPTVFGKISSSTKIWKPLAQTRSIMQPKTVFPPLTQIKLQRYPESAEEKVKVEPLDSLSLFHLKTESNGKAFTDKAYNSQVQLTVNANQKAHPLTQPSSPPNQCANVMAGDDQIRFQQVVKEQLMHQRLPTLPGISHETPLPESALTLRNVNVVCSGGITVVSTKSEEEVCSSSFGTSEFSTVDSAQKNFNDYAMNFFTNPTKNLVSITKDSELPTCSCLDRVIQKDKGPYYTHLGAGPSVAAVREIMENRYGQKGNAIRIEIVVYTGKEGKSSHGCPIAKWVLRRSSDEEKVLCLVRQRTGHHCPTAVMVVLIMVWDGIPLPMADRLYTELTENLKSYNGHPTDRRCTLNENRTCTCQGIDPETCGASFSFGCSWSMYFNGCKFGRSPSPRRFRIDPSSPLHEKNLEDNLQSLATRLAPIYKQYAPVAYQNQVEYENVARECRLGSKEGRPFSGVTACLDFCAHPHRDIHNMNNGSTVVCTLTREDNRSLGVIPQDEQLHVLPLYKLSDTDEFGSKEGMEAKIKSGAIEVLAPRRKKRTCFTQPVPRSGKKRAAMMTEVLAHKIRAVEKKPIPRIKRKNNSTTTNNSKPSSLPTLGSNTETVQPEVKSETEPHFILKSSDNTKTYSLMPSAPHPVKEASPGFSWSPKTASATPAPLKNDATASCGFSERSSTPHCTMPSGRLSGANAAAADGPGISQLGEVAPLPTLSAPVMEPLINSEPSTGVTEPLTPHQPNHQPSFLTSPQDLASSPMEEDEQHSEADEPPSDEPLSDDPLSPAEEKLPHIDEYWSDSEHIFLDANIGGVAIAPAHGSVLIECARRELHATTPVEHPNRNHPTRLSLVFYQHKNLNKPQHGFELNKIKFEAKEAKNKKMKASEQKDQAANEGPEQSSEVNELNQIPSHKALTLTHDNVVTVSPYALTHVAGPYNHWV
UniProt Q13769: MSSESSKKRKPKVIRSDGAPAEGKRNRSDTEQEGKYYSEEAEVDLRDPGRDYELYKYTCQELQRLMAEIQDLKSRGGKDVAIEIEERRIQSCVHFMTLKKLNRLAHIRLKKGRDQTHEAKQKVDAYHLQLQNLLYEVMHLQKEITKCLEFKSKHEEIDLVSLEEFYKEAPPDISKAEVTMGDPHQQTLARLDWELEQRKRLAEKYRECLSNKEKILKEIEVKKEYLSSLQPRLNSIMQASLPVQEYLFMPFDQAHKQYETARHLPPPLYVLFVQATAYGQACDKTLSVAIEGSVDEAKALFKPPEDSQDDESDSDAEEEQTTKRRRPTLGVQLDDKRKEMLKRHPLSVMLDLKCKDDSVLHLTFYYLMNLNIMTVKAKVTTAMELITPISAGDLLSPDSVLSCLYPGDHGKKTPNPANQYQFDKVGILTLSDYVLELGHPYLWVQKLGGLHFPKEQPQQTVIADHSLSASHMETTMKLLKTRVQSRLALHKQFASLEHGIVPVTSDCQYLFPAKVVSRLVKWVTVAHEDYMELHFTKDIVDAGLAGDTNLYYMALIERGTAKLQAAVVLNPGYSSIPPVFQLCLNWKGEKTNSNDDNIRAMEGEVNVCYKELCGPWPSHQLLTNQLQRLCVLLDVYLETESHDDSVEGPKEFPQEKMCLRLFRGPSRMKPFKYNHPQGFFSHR
UniProt Q15554: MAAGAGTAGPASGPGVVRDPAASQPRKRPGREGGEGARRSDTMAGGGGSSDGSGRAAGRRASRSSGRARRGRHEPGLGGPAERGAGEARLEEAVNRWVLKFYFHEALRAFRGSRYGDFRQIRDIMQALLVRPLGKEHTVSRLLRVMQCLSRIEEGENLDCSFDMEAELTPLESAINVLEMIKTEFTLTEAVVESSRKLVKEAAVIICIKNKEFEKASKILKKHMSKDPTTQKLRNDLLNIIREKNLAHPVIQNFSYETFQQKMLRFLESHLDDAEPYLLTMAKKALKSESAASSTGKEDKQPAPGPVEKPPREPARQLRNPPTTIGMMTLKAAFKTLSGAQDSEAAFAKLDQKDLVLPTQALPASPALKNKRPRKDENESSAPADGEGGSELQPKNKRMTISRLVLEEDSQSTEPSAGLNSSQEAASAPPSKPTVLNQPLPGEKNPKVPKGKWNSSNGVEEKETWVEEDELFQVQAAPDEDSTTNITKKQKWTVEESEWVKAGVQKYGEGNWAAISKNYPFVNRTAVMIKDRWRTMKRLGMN
UniProt O95359, 2566-2590: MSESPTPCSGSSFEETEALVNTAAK

This is one part of the list. The data scatter; read single values as rough.

Compound in one assay: ClCC(=O)N[C@@H]1CCCc2ccccc12
The experiment in a line: log2 mean competition ratio of IA-DTB cysteine labelling (DMSO/compound) (log2 ratio); higher = stronger cysteine engagement by compound. Particulars: 50 µM; treatment time: 4 h; cell line lysate: HEK293T. On the procedure:
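IA-DTB competitive cysteine chemoproteomics in HEK293T RIPA lysate. Lysates were treated with compound 29 or 30 at 50 or 200 µM for 4 h, then IA-DTB (500 µM, 1 h), trypsin-digested, NeutrAvidin-enriched and analysed by diaPASEF. Competition ratio = intensity DMSO / intensity compound (n=4 treated, n=64 DMSO); binding: mean log2 CR ≥ 1 and p ≤ 0.05 plus QC filters. Target is the cysteine site.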
Turning to TBP C221 (UniProt P20226), the “log2 mean competition ratio” value came to 0.0552.

Turning to TICRR C174 (UniProt Q7Z2Z1), the “log2 mean competition ratio” value was -0.362.

Turning to SYP C87 (UniProt P08247), the “log2 mean competition ratio” value amounted to 0.076.

On to TET2 C1811 (UniProt Q6N021), for which the “log2 mean competition ratio” value turned out to be 0.171.

As for TBCE C152 (UniProt Q15813), the “log2 mean competition ratio” value stood at 0.0341.

For the target TAF8 C80, the “log2 mean competition ratio” value came out at 0.317.

TBCEL C121 (UniProt Q5QJ74): the “log2 mean competition ratio” value amounted to 0.101.

TET1 C1881 (UniProt Q8NFU7): the “log2 mean competition ratio” value came to 0.0258.

For the target TECPR1 C84 (UniProt Q7Z6L1), the “log2 mean competition ratio” value was -0.135.

Consider TCP1 C357 (UniProt P17987), for which the “log2 mean competition ratio” value is -0.0767.

Take THOC5 C208 (UniProt Q13769): the “log2 mean competition ratio” value was determined as 0.11.

As to TERF2 C207 (UniProt Q15554), the “log2 mean competition ratio” value was -0.203.

Take TACC2 C2573 (UniProt O95359): the “log2 mean competition ratio” value is -0.384.

For the target TAX1BP1 C271 (UniProt Q86VP1), the “log2 mean competition ratio” value was -0.363.

Turning to TASP1 C351 (UniProt Q9H6P5), the “log2 mean competition ratio” value turned out to be 0.102.

Take TACC3 C662: the “log2 mean competition ratio” value was 0.0593.

On to TES C294 (UniProt Q9UGI8), for which the “log2 mean competition ratio” value came to 0.235.

Consider TBC1D13 C36 (UniProt Q9NVG8), for which the “log2 mean competition ratio” value amounted to 0.0213.

As for TAF6 C130 (UniProt P49848), the “log2 mean competition ratio” value was -0.167.

Consider TECPR2 C282 (UniProt O15040), for which the “log2 mean competition ratio” value was -0.116.

Staying with this assay, now noted: 200 µM; treatment time: 4 h; cell line lysate: HEK293T.
Consider TBP C221 (UniProt P20226), for which the “log2 mean competition ratio” value worked out at 0.0886.

For TICRR C174 (UniProt Q7Z2Z1), the “log2 mean competition ratio” value turned out to be 0.305.

Consider SYP C87 (UniProt P08247), for which the “log2 mean competition ratio” value was 0.0994.

For TET2 C1811 (UniProt Q6N021), the “log2 mean competition ratio” value stood at 0.0948.

As to TBCE C152 (UniProt Q15813), the “log2 mean competition ratio” value is -0.0693.

For TAF8 C80, the “log2 mean competition ratio” value is 0.013.

With TBCEL C121 (UniProt Q5QJ74), the “log2 mean competition ratio” value was -0.0545.

TET1 C1881 (UniProt Q8NFU7): the “log2 mean competition ratio” value was -0.0136.

As for TECPR1 C84 (UniProt Q7Z6L1), the “log2 mean competition ratio” value was -0.124.

For TCP1 C357 (UniProt P17987), the “log2 mean competition ratio” value is -0.133.

Consider THOC5 C208 (UniProt Q13769), for which the “log2 mean competition ratio” value was -0.165.

For TERF2 C207 (UniProt Q15554), the “log2 mean competition ratio” value was -0.324.

For TACC2 C2573 (UniProt O95359), the “log2 mean competition ratio” value was -0.548.

TAX1BP1 C271 (UniProt Q86VP1): the “log2 mean competition ratio” value is -0.539.

On to TASP1 C351 (UniProt Q9H6P5), for which the “log2 mean competition ratio” value is -0.0409.

With TACC3 C662, the “log2 mean competition ratio” value is -0.179.

Consider TES C294 (UniProt Q9UGI8), for which the “log2 mean competition ratio” value is -0.228.

Turning to TBC1D13 C36 (UniProt Q9NVG8), the “log2 mean competition ratio” value is -0.41.

Turning to TAF6 C130 (UniProt P49848), the “log2 mean competition ratio” value came out at 0.0955.

Regarding TECPR2 C282 (UniProt O15040), the “log2 mean competition ratio” value was -0.352.
